{
  "source": "paper doi:10.1101/163998",
  "biological_target": "T1, DAP5, endogenous in MEFs (mouse (endogenous in MEFs)) (UniProt Q62448)",
  "T1 sequence": "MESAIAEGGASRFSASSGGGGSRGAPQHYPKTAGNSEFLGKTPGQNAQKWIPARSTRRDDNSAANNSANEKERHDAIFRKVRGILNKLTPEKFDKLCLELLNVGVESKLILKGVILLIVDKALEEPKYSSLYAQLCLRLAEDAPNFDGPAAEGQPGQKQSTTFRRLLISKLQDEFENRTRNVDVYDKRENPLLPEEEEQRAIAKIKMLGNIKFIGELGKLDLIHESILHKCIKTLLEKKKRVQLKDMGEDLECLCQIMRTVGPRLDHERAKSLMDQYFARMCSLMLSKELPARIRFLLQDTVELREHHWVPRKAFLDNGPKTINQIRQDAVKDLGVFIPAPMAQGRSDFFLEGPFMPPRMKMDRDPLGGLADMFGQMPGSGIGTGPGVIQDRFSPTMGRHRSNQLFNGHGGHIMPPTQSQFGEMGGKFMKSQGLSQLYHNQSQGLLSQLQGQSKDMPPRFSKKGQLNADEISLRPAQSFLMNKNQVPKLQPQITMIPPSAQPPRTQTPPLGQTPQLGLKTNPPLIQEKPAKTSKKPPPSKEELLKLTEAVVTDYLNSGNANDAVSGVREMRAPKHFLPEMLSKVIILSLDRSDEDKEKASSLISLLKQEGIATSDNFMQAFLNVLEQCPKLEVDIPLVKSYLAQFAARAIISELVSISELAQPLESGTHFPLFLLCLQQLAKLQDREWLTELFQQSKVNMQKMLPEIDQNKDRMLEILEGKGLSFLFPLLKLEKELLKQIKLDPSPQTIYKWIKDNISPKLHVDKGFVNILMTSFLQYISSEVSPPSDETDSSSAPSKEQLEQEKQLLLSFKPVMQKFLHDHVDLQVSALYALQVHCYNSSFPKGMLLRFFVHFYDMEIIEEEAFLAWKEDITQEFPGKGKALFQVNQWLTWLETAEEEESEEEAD",
  "experiment": "co-IP",
  "note": "No constants are given. Whether binding was seen depends on the method and setting. In cells and extracts the contact can be indirect. A result given as binding can be weak or reduced; the word gives no strength.",
  "data": [
    {"substance": "HA-tagged human IRF5-V5, stably expressed in Irf5-/- MEFs", "values": [
      {"measurement": "binding", "value": "binds"}
    ]}
  ]
}
